Some of the results follow. Further columns of the screen follow, without active or inactive calls. Most of these compounds were active or inconclusive in the main read-out, so they are no random draw. Potencies come from curve fits of mixed quality, noted in brackets.
Assay: qHTS Assay for Lipid Storage Modulators in Drosophila S3 Cells;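 on cell number change: cells counted by Cell Tracker Red CMTPX staining in the red channel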
Conditions: BODIPY lipid droplet fluorescence, 18-24 h; for cell number change: measured here: cell count max response, cells fed with added oleic acid
Summary of the method: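 Drosophila S3 cells loaded with oleic acid (400 uM, as added) and compounds at several concentrations; lipid droplets imaged by 488-nm laser-scanning cytometry, 500–530 nm intensity and object ratio to cell channel. Percent activity normalized to 20 uM Triacsin C.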

[1] = measured here: lipid fluorescence (Fed channel) AC50, cells fed with added oleic acid
[2] = measured here: cell number channel AC50, cells fed with added oleic acid

For `COc1ccccc1NC(=O)CSc1nnc(-c2ccoc2C)n1CCc1ccccc1`, the cell number change was -7.45% and the AC50 [1] was 0.92 µM [rising, single point].

For `O=C(COn1nnc2ccc(Cl)cc21)NC12CC3CC(CC(C3)C1)C2`, the cell number change was -54.3% and the AC50 [2] was 29.1 µM [falling, partial curve, poor fit].

In the case of `CN(C1=C(NC(=O)c2ccccc2)C(=O)c2ccccc2C1=O)C1CCS(=O)(=O)C1` (centres undefined), the cell number change is reported as 5.75% and the AC50 [1] is reported as 23.1 µM [falling, single point].

With `O=C(/C=C/c1cccc2ccccc12)c1ccncc1` the cell number change was -24.4% and the AC50 [1] was 5.8 µM [falling, partial curve].

In the case of `Cc1ccccc1OCC(=O)NNC(=O)Nc1ccc(Cl)cc1`, the cell number change is reported as -25.8% and the AC50 [1] is reported as 32.6 µM [falling, single point].

In the case of `Cn1cccc1CNC1CCCCC1`, the cell number change is reported as -19.5% and the AC50 [1] is reported as 16.4 µM [falling, partial curve].

In the case of `Cc1ccc(CNC(=O)[C@@H](NC(=O)C2CCN(C(=O)[C@@H](N)CC(C)C)CC2)C(C)C)cc1`, the AC50 [1] is reported as 29.1 µM [rising, single point].

In the case of `CCCNC(=O)CCc1c(C)nc2nc(C)nn2c1C`, the cell number change is reported as -41.1% and the AC50 [2] is reported as 13 µM [falling, partial curve, poor fit].

With `O=C1C=C(c2cccc(O)c2)C[C@@H](c2ccc(F)cc2)C1` the cell number change was 6.79%.

With `CC(=O)Nc1cc(-c2nn3c(C)nnc3s2)ccc1C` the cell number change was 18%.

In the case of `O=C(NCc1ccc2c(c1)OCO2)c1ccc(S(=O)(=O)NCC2CCCO2)cc1` (centres undefined), the cell number change is reported as 3.18% and the AC50 [1] is reported as 16.4 µM [rising, partial curve].

For `CC(=O)Nc1ccc(S(=O)(=O)c2ccc(N)cc2)cc1`, the cell number change was -30.9%, the AC50 [2] was 1.64 µM [falling, full curve, poor fit] and the AC50 [1] was 4.61 µM [falling, full curve, poor fit].

With `CCc1ccc(NC(=O)C2CCCN2c2nn3c(=O)cc(C)nc3s2)cc1` (centres undefined) the cell number change was 6.05% and the AC50 [1] was 6.51 µM [falling, single point].

Molecule `COCCNc1nc(N)c([N+](=O)[O-])c(N2CCCCCC2)n1` has a cell number change of -40.5%.

For `OCCSc1nncn1/N=C/c1c[nH]c2ccccc12`, the cell number change was 0.65% and the AC50 [1] was 4.11 µM [rising, single point].

In the case of `CCOc1ccccc1NC(=O)c1cc(S(=O)(=O)N2CCC3(CC2)OCCO3)ccc1F`, the cell number change is reported as 4.47% and the AC50 [2] is reported as 0.082 µM [falling, full curve, poor fit].

For `Cc1cc(C)cc(Oc2c(C(F)(F)F)oc3cc(OCC(=O)O)ccc3c2=O)c1`, the cell number change was 1.14% and the AC50 [1] was 0.731 µM [falling, single point].

For `Cc1ccc(S(=O)(=O)Nc2nonc2C)cc1`, the cell number change was -6.13% and the AC50 [1] was 0.103 µM [falling, full curve, poor fit].

Molecule `CC1Cc2ccccc2N1C(=O)COC(=O)c1ccc(N(C)C)cc1` (centres undefined) has a cell number change of 3.76%.

In the case of `CCOc1ccccc1/C=C(\C#N)C(=O)Nc1cccc(C(=O)O)c1`, the cell number change is reported as -16% and the AC50 [1] is reported as 32.6 µM [falling, partial curve, poor fit].

With `Cc1onc(-c2c(F)cccc2Cl)c1C(=O)NCc1ccccn1` the cell number change was -0.485% and the AC50 [1] was 0.103 µM [falling, full curve, poor fit].

In the case of `O=C(Nc1cccc(S(=O)(=O)N2CCCCCC2)c1)C1CCN(C(=O)c2ccc(F)cc2)CC1`, the cell number change is reported as -32.4% and the AC50 [1] is reported as 25.9 µM [falling, single point].

In the case of `CC(C)Cn1c(O)c(N=NC(=O)c2cccc(S(=O)(=O)N3CCCCC3)c2)c2ccccc21`, the cell number change is reported as 15.9% and the AC50 [1] is reported as 32.6 µM [falling, single point].

Work on `O=C1N=C(N2CCOCC2)S/C1=C1\C(=O)N(Cc2ccccc2)c2ccccc21` yielded a cell number change of 0.455%.

In the case of `Cn1c(=O)c2c(SCc3cccnc3)nc(CC(C)(C)C)nc2n(C)c1=O`, the AC50 [1] is reported as 2.31 µM [rising, partial curve, poor fit].

With `COc1cccc(-c2nc(CS(=O)CC(=O)NCc3ccccc3Cl)c(C)o2)c1` (centres undefined) the cell number change was 25.2% and the AC50 [1] was 29.1 µM [rising, single point].

Molecule `O=C(COC(=O)c1n[nH]c2ccccc12)Nc1ccc(Cl)cc1[N+](=O)[O-]` has a cell number change of 8.92%.

In the case of `Fc1ccc(-n2cc(CNCCc3ccccn3)c(-c3ccccc3Cl)n2)cc1`, the cell number change is reported as 18.5% and the AC50 [2] is reported as 0.00517 µM [rising, full curve, poor fit].

Work on `COc1ccc(-c2cc(C(=O)NCCN3CCOCC3)c3ccccc3n2)cc1` yielded a cell number change of 20.5%.

For `COC(=O)c1cc(OC)c(OCc2cc(C(=O)OC)oc2C)c(OC)c1`, the cell number change was -99%, the AC50 [2] was 6.51 µM [rising, single point] and the AC50 [1] was 0.58 µM [falling, single point].

For `Cc1cccc(OCC(O)CN2C(C)(C)CC(O)CC2(C)C)c1` (centres undefined), the cell number change was -176%, the AC50 [2] was 16.4 µM [falling, partial curve] and the AC50 [1] was 20.6 µM [falling, partial curve].

With `CCCCOc1ccc(C(=O)NNC(=O)C2C3CCC(C3)C2C(=O)O)cc1` (centres undefined) the cell number change was -24% and the AC50 [1] was 18.4 µM [falling, single point].

With `CCC(=O)Nc1ccc(N2CCN(C(=O)c3ccco3)CC2)c(Cl)c1` the cell number change was -10.2%.

For `COc1ccc(C2C(C(=O)/C=C/c3ccco3)=C(O)C(=O)N2CCN2CCOCC2)cc1` (centres undefined), the cell number change was 10.9%, the AC50 [2] was 0.58 µM [falling, full curve] and the AC50 [1] was 6.51 µM [falling, partial curve, poor fit].

In the case of `O=C(CN1CCC(Cc2ccccc2)CC1)Nc1ccc2c(c1)OCCO2`, the cell number change is reported as 8.33% and the AC50 [1] is reported as 0.164 µM [falling, full curve].

With `Cc1cccn2c(CNCC(C)Oc3cccnc3)c(C(=O)N3CCOCC3)nc12` (centres undefined) the cell number change was 21.3% and the AC50 [1] was 0.0184 µM [rising, full curve, poor fit].

For `CCN=C1SC(CC(=O)NCC)C(=O)N1CC` (centres undefined), the cell number change was -68.7%, the AC50 [2] was 25.9 µM [falling, partial curve, poor fit] and the AC50 [1] was 23.1 µM [falling, partial curve].

In the case of `CCCCCCCc1c(C)nc(N2CCOCC2)[nH]c1=O`, the cell number change is reported as 16.8% and the AC50 [1] is reported as 0.0651 µM [falling, full curve, poor fit].

For `CC1CCCN(c2ccc(C(=O)Nc3cccnc3)cc2[N+](=O)[O-])C1` (centres undefined), the cell number change was 6.34% and the AC50 [1] was 0.231 µM [rising, full curve, poor fit].

For `O=C(CSC1=NCCN1)Nc1ccccc1[N+](=O)[O-]`, the cell number change was -11.8%.

With `O=C1CNC(=O)/C1=C/c1ccc(O)cc1` the cell number change was 37.5%, the AC50 [2] was 29.1 µM [rising, single point] and the AC50 [1] was 29.1 µM [rising, single point].

In the case of `COCCCNC(=S)N1CCN(c2nc(-c3cccc(OC)c3)cs2)CC1`, the cell number change is reported as -33.3%, the AC50 [2] is reported as 7.31 µM [falling, partial curve, poor fit] and the AC50 [1] is reported as 13 µM [falling, partial curve].

For `Cn1nc(C(=O)NC2CCCN(Cc3ccccc3F)C2)c2ccccc2c1=O` (centres undefined), the AC50 [2] was 6.51 µM [rising, single point].

For `CCOc1c(CNCCCSc2nc(C)cc(C)n2)cccc1OC`, the cell number change was -11% and the AC50 [1] was 23.1 µM [falling, partial curve, poor fit].

With `COc1cc2c(cc1OC)CN(S(=O)(=O)/C=C/c1ccccc1)CC2` the AC50 [2] was 0.0461 µM [rising, partial curve, poor fit].

In the case of `COc1ccc(OC)c2sc(Cl)nc12`, the cell number change is reported as 30.5%, the AC50 [2] is reported as 16.4 µM [rising, single point] and the AC50 [1] is reported as 16.4 µM [rising, partial curve].

With `CCCCNc1ccc(C(=O)OCCOCCOCCOCCOCCOCCOCCOCCOCCOC)cc1` the cell number change was 16.7% and the AC50 [1] was 29.1 µM [rising, single point].

For `Cc1cc(C)c(C)c(S(=O)(=O)NCc2ccc(C(=O)N3CCCC3)cc2)c1C`, the cell number change was -27.1% and the AC50 [1] was 29.1 µM [falling, single point].

In the case of `CC(C)c1ccc(NC2CCCN(C(=O)c3cnn(C(C)C)c3)C2)cc1` (centres undefined), the cell number change is reported as 20.5%.

In the case of `CCN(CC(=O)Nc1ccc(OC)cc1)C(=O)C1CCN(C(=O)c2ccc(Cl)cc2)CC1`, the cell number change is reported as 1.43%, the AC50 [2] is reported as 4.11 µM [falling, single point] and the AC50 [1] is reported as 6.51 µM [falling, single point].

`O=C(O)c1ccc(S(=O)(=O)c2ccc3c(c2)C(=O)N(c2ccccc2[N+](=O)[O-])C3=O)cc1` showed a cell number change of 19.4%.

With `O=S(=O)(Nc1ccc(S(=O)(=O)N2CCCC2)cc1)c1ccc(F)cc1` the cell number change was -1.67% and the AC50 [1] was 0.231 µM [falling, full curve].

In the case of `Cc1ccc(-c2csc3nc(CSc4nnc(-c5ccc(Cl)cc5)n4C)[nH]c(=O)c23)cc1`, the AC50 [2] is reported as 6.51 µM [falling, partial curve, poor fit].

With `C=C1N(c2ccc(Cl)cc2)C(=O)OC1(C)C` the cell number change was -24.3% and the AC50 [1] was 2.59 µM [falling, partial curve].

`CCC(CC)NC(=O)c1ccc2nc[nH]c2c1` showed a cell number change of 12.3%.

In the case of `O=C1CCC(C(=O)Nc2ccc([N+](=O)[O-])cc2)N1` (centres undefined), the cell number change is reported as -26.8% and the AC50 [1] is reported as 0.082 µM [rising, full curve, poor fit].

In the case of `COCc1c(C(=O)N2CCN(Cc3c(F)cccc3Cl)CC2)oc2ccccc12`, the cell number change is reported as 30.6%, the AC50 [2] is reported as 4.11 µM [rising, full curve, poor fit] and the AC50 [1] is reported as 0.82 µM [rising, full curve, poor fit].

For `COc1ccc(NC(=O)c2nn(C)c3c2CS(=O)(=O)c2ccccc2-3)cc1`, the AC50 [2] was 1.64 µM [rising, partial curve, poor fit] and the AC50 [1] was 2.91 µM [rising, single point].

With `COc1ccc(C(CCNCc2ccc(N(C)C)cc2)c2ccccc2OC)cc1` (centres undefined) the cell number change was -6.31% and the AC50 [1] was 29.1 µM [falling, single point].

In the case of `CC(=O)Nc1cc2c(cc1Br)OCCO2`, the cell number change is reported as -204%, the AC50 [2] is reported as 20.6 µM [falling, partial curve] and the AC50 [1] is reported as 20.6 µM [falling, partial curve].
